Data from the supplement of paper PMC3334620.
In all, about 33,000 sequences were measured (“E-score (-0.5 to 0.5)”: median about -0.0034, highest 2% from about 0.25 on). Some of the results follow.

These sequences were tested against T1, Yap3 (UniProt P38749) (assay: PBM E-score (8-mer binding enrichment) (E-score (-0.5 to 0.5)); higher = stronger / more preferred TF binding). Conditions: protein concentration: 100 nM; construct: GST-full length.
T1 sequence: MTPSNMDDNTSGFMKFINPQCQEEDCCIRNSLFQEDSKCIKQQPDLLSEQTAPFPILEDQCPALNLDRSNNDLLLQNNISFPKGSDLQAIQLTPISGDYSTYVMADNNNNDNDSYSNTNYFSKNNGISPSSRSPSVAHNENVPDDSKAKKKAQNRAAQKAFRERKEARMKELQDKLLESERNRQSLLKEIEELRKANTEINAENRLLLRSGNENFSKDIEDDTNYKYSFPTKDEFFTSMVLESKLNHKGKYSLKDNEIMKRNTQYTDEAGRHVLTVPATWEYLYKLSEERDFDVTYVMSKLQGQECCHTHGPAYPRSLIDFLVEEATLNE
Procedure: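 Universal 'all 10-mer' protein binding microarrays (Agilent AMADID 015681) probed with GST-tagged S. cerevisiae TFs (full-length or DBD) made by in vitro transcription/translation (PURExpress), about 100-200 nM. Bound TF was detected with fluorescent anti-GST. Each ungapped 8-mer (which stands for itself and its reverse complement) is scored by the PBM enrichment score (E-score), a modified Wilcoxon-Mann-Whitney statistic from -0.5 to +0.5, computed with the Universal PBM Analysis Suite. Scale: above 0.35 generally sequence-specific binding.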

| Sequence | PBM E-score |
| --- | --- |
| TACCGCCA | 0.0501 |
| GACATAGA | -0.00498 |
| AAAGTGCG | 0.106 |
| TTAGCAAA | 0.117 |
| GTATCCAC | 0.00896 |
| GCGCCAGA | -0.258 |
| TCCATTAA | 0.0027 |
| ATTGCCCA | 0.0188 |
| CTGAGAAG | -0.133 |
| TCGTGTAA | 0.0514 |
| AGTCATCG | 0.0401 |
| GACGGAGA | -0.0696 |
| ACTAACCC | 0.0194 |
| AAATTAAT | 0.229 |
| GAGCCGAC | -0.337 |
| CGCCTATA | 0.0163 |
| CATATGGA | 0.0733 |
| CCTACACC | 0.00957 |
| GCCTTAGA | -0.118 |
| TGACGCCA | 0.0476 |
| CACTCGGC | 0.095 |
| AACTACTC | 0.093 |
| CCTCGGGA | -0.0911 |
| AGTCTTTC | 0.0182 |
| CCGGTAGG | -0.166 |

| Sequence | PBM E-score |
| --- | --- |
| GCTTCTCA | -0.0894 |
| AAGCGAAT | 0.15 |
| ATGCACCA | -0.0699 |
| AACTTTAC | 0.0915 |
| CATAATAG | 0.189 |
| CGGGCAAC | -0.264 |
| GTACCACA | 0.0448 |
| GTTTTTTA | 0.202 |
| ACGCCTGG | -0.102 |
| AGCTTCAT | 0.103 |
| CGACCCGC | -0.22 |
| CCATATCA | 0.0903 |
| AGACGAAA | 0.147 |
| CCAGCGCC | -0.194 |
| CGAGATCG | -0.011 |
| GATCCCGC | -0.00636 |
| AATCCCAT | 0.0573 |
| TAATTGAA | 0.0444 |
| CCGAGTCC | -0.199 |
| AAGATGCA | 0.128 |
| CGCCTTTC | -0.202 |
| GGATACCC | -0.142 |
| CGCGTCCA | -0.0281 |
| ATAAATGA | 0.217 |
| GGAGAAAA | 0.0507 |

| Sequence | PBM E-score |
| --- | --- |
| TCATCTAA | -0.0652 |
| AGATGACA | 0.0699 |
| AATCAGAC | 0.0969 |
| CAGAGCTG | -0.224 |
| CTGGGAAA | 0.0682 |
| AGTCATAA | 0.14 |
| GCCGTAAA | 0.209 |
| GCCATGCA | -0.0815 |
| ATTCTTTA | 0.137 |
| CAATCGTG | -0.0597 |
| CCGGGGCG | -0.215 |
| CATCCACG | 0.0556 |
| TATCCGGA | 0.0257 |
| CCACAACG | -0.0655 |
| GGTCGAAC | -0.117 |
| AAGGTCGA | 0.0791 |
| GGTAGTAA | 0.0347 |
| CACCGTCA | -0.0873 |
| AGATTGCG | 0.0819 |
| GCGCGCTA | 0.257 |
| GTATCTCA | 0.167 |
| CGCAAACA | 0.199 |
| CTTATAAA | 0.187 |
| ACGACCGC | -0.245 |
| CAAATAGC | 0.0993 |

Laid out differently: results already given.
CACCGTCA
  PBM E-score: -0.0873
AGATTGCG
  PBM E-score: 0.0819
GCGCGCTA
  PBM E-score: 0.257
GTATCTCA
  PBM E-score: 0.167

Following part

| Sequence | PBM E-score |
| --- | --- |
| CTCCTGTA | 0.102 |
| CAGTGGCC | -0.186 |
| CCCCTTGC | -0.281 |
| ACGGAACG | 0.116 |
| ACTAGTTA | 0.114 |
| CCTAATAC | 0.122 |
| GTCTAGTA | 0.132 |
| ATGGCTGC | 0.0187 |
| TCAGAAGA | -0.153 |
| GTGTACAA | 0.191 |
| AAATTGCG | 0.0074 |
| AATAGACA | -0.0177 |
| AGGAGAAA | 0.00362 |
| CTCTATGA | -0.038 |
| GACCACTA | 0.102 |
| ACCGGAGT | -0.204 |
| GGCTTTAC | -0.0301 |
| CAGTGCCA | -0.233 |
| AGGTTTGG | -0.0823 |
| ACAAGTCC | -0.207 |
| ATCTAGAT | -0.0211 |
| GAATAACA | 0.308 |
| ATCAGTCA | 0.0825 |
| ATGAACTC | 8e-05 |
| CTCTTAGC | -0.0346 |

Four entries from above, with each value named.
GTCTAGTA
  PBM E-score: 0.132
ATGGCTGC
  PBM E-score: 0.0187
TCAGAAGA
  PBM E-score: -0.153
GTGTACAA
  PBM E-score: 0.191

More records.

| Sequence | PBM E-score |
| --- | --- |
| GAAGCTTA | 0.0705 |
| AACTGACA | 0.0248 |
| AGGAAAAT | 0.137 |
| ATTACCAC | 0.136 |
| AATATATC | 0.157 |
| AACTAATC | 0.0334 |
| GATTAAGA | 0.193 |
| GGATCAGA | -0.0891 |
| AATACCAA | 0.095 |
| CTATGTAC | 0.0422 |
| GAGACGGC | -0.138 |
| CGGCACCA | -0.117 |
| AAGCCATA | 0.0111 |
| ACGCTCCC | -0.0554 |
| GAACGGTC | -0.0884 |
| TCTTTTCA | 0.221 |
| CTACTCAG | -0.219 |
| AATGCCTG | 0.0136 |
| AGCGGTCC | -0.175 |
| CTAAGGGA | 0.0792 |
| TACGTGAA | 0.2 |
| CTTTCACA | 0.164 |
| AAAATTAA | 0.138 |
| CATGCCAC | -0.0581 |
| AACAAGAG | -0.0705 |

| Sequence | PBM E-score |
| --- | --- |
| GCGGCCTA | -0.0845 |
| GGGAGCCA | -0.171 |
| AGATAGTA | 0.14 |
| AGCGGCGC | -0.188 |
| CGACATCA | 0.0904 |
| GCCCTTAA | -0.197 |
| GAAGGGTC | -0.373 |
| TATCGACA | -0.00051 |
| ACAAGTCT | 0.0466 |
| TATCGCCA | 0.0619 |
| CATCACAA | 0.0635 |
| CCCGACGG | -0.146 |
| ATAAGTTC | 0.244 |
| AAAGCCGG | -0.00605 |
| GAACTACA | 0.0379 |
| GTGATCCA | -0.0162 |
| AGACATAT | 0.185 |
| CACTCGTC | -0.0107 |
| ATGAAACC | 0.0907 |
| AGGTTACC | 0.155 |
| CGAGGTTC | 0.0474 |
| AACATTCC | -0.00151 |
| CGATTCCA | -0.0507 |
| GGCCGCCC | -0.273 |
| GGTTAACC | -0.0407 |

| Sequence | PBM E-score |
| --- | --- |
| AAGCGTCA | -0.0428 |
| AACCTTTG | -0.0148 |
| AATTGTGA | 0.229 |
| CGGAGTTC | 0.0329 |
| AGTCCCAA | -0.0515 |
| ATTTCTAA | 0.0658 |
| AGCGCGAC | 0.0599 |
| CCCAGAAC | -0.00833 |
| ACCGCTCG | -0.0737 |
| CTAGCTAA | 0.0653 |
| GTTGAGTA | 0.0684 |
| ATTGGGTC | -0.0609 |
| AGTCTTAA | -0.0698 |
| CCATAACA | 0.192 |
| AGTCCAGC | -0.21 |
| CATCAAGC | -0.0486 |
| ATTCGGCA | 0.0276 |
| AATCCTAC | -0.172 |
| ACCATCAT | 0.0616 |
| GTTAAATA | 0.178 |
| GGGATTTA | 0.00928 |
| AAGCTGTG | -0.0227 |
| ATGAGCTA | 0.0721 |
| GCCGCTAC | -0.035 |
| AGTATGTG | 0.203 |

| Sequence | PBM E-score |
| --- | --- |
| CACGTAAC | 0.139 |
| CAGCACGA | -0.042 |
| GAACGGCA | 0.0495 |
| GAGAGTCA | -0.0408 |
| TCCACCCA | -0.0597 |
| ACGGGATC | -0.031 |
| TGTGAGAA | 0.198 |
| CGGCCCCC | -0.416 |
| TGTTGAAA | 0.156 |
| CTTTAGGA | -0.0461 |
| CTAACCCA | -0.0614 |
| TAAGTCTA | -0.0558 |
| GCACTGAA | 0.0659 |
| ATCAGCTC | 0.00619 |
| ATGTAGTA | 0.237 |
| CACAAGTG | -0.246 |
| AATCTGCA | 0.0198 |
| CACGCGAA | -0.0244 |
| AGAGGTAT | 0.256 |
| ATCCTTTA | 0.0774 |
| ATTTATGA | 0.174 |
| GTGTATGA | 0.0534 |
| ACGGTTAA | 0.0619 |
| ATGATCGG | -0.0209 |
| CCCACATA | -0.0259 |

| Sequence | PBM E-score |
| --- | --- |
| ATTTCTAG | 0.083 |
| ACCCAGGA | -0.153 |
| CAGTTCAA | 0.0849 |
| AACCAAAA | 0.237 |
| GAACAAAA | 0.346 |
| CACTATCA | 0.0462 |
| TCTTTGAA | -0.0592 |
| GTAGTGAA | 0.0432 |
| TAGGCTAA | -0.0454 |
| CGCTCCGC | -0.13 |
| CCAGCACA | -0.0385 |
| GCGGGTTA | 0.0735 |
| GAGCGCAA | -0.167 |
| TCGTATCA | 0.151 |
| CGAGTCAC | -0.135 |
| CCGCGAGA | -0.198 |
| GTGTAGGA | 0.0755 |
| AGATTGAC | -0.0808 |
| GACGTAAC | 0.194 |

As entered above.
Value of GCGGGTTA under PBM E-score: 0.0735
Value of TCGTATCA under PBM E-score: 0.151
Value of CGCTCCGC under PBM E-score: -0.13
